Experimental data: PubChem BioAssay AID1224826 (NIAID, 2016)

- Test: 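Regulators of Tlr4 signalling leading to Tnf-alpha expression in macrophages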 (primary screen)
- Cell system: RAW264.7 G9 macrophages from mouse bearing reporters for p65 (GFP) and the Tnf promoter (mCherry)
- Reagent: siRNA pool against mouse genes, 100 nM
- Timing: 16 h of LPS stimulation, after 2 days of siRNA transfection
- Conditions: bacterial lipopolysaccharide (Salmonella minnesota R595), 10 ng/ml
- Read-out: 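Imaged Tnf reporter mCherry in nuclei, minus background, normalised per plate to the median and expressed as robust z-scores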
- Scale: Tnf reporter robust z-score: higher = stronger Tnf promoter reporter signal after LPS; Tnf reporter intensity: higher = stronger Tnf promoter reporter signal
- Call rule: 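a well counts as active at a score of -1.3 or below (Tlr4 knock-down control median) or above 3 (raised signal); controls and wells holding fewer than 50 cells are excluded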
- Meaning of the calls: active = Tnf reporter clearly lowered or raised; inactive = no clear change in Tnf reporter
The deposit covers about 17,000 reagents; shown is a part drawn at random. In the full data, about 1,110 (6.6%) were called active. 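Active means lowered or raised reporter signal; replicate intensities are raw and not normalised per plate.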 Entries without a mark were called inactive.

gene symbol,Tnf reporter robust z-score,fewer than 50 cells in well,"Tnf reporter intensity, replicate 1","Tnf reporter intensity, replicate 2"
Npas2,-0.72,enough cells in well,174,145
4932414J04Rik,,fewer than 50 cells per well; well left out of calls,395,105
Cisd2,-1.39 (active),enough cells in well,148,38.6
Polr2g,-2.11 (active),enough cells in well,77.1,58.4
Gpr157,0.87,enough cells in well,279,204
Mmp3,0.25,enough cells in well,287,222
Zfyve26,0.87,enough cells in well,175,248
Ciita,-0.13,enough cells in well,149,141
Bco2,1.17,enough cells in well,166,230
Hcrt,2.33,enough cells in well,378,377
Or2t45,-0.66,enough cells in well,127,103
Mcm8,3.18 (active),enough cells in well,418,283
Ktn1,-1.29,enough cells in well,121,95.1
Spag7,,fewer than 50 cells per well; well left out of calls,23.9,27.3
Cyfip1,1.04,enough cells in well,273,213
Srprb,,fewer than 50 cells per well; well left out of calls,82,58.4
Tssk4,-0.4,enough cells in well,161,144
Vmn1r227,-1.2,enough cells in well,72.6,74.6
Vmn1r52,-1.3 (active),enough cells in well,68.9,54
Tnfrsf11b,-1.96 (active),enough cells in well,79.5,45.2
Eif3m,-1.09,enough cells in well,167,79.4
Nrip3,-1.06,enough cells in well,127,52.7
Zfp87,-0.25,enough cells in well,109,120
Dcun1d3,-1,enough cells in well,146,127
Glis2,-0.59,enough cells in well,192,149
Hoxd12,0.29,enough cells in well,256,211
Zc3h7a,0.9,enough cells in well,161,164
Vill,-1.43 (active),enough cells in well,63.8,59.8
Sectm1b,1.23,enough cells in well,141,145
Cldn13,-1.71 (active),enough cells in well,68.2,194
Cnot6,,fewer than 50 cells per well; well left out of calls,42,27.9
Twf1,-0.92,enough cells in well,103,140
Efcab7,-0.37,enough cells in well,190,171
Cd48,0.52,enough cells in well,292,242
Taf11,0.09,enough cells in well,197,166

Only “Tnf reporter robust z-score”, for 2 of the entries above:
Zfyve26	0.87
Ciita	-0.13

Continued:
gene symbol,Tnf reporter robust z-score,fewer than 50 cells in well,"Tnf reporter intensity, replicate 1","Tnf reporter intensity, replicate 2"
Ncor1,0.55,enough cells in well,349,213
Speer4d,,fewer than 50 cells per well; well left out of calls,93.2,49.3
Lce1a2,0.51,enough cells in well,106,127
Pwp2,-1.51 (active),enough cells in well,67.3,59.8
Clec4f,-1.13,enough cells in well,61.7,164
Rsl1d1,0.82,enough cells in well,175,91
Dock11,-0.84,enough cells in well,143,120
Col18a1,0.11,enough cells in well,223,246
Arnt2,-1.03,enough cells in well,103,119
Ccar1,-0.65,enough cells in well,119,151
Bambi,-2.22 (active),enough cells in well,45.3,60.2
Gpx5,-0.29,enough cells in well,218,151
Chlsn,,fewer than 50 cells per well; well left out of calls,103,58.5
Ttyh2,-1.15,enough cells in well,64.4,53.2
Apip,5.27 (active),enough cells in well,390,427
Mia3,-0.95,enough cells in well,101,108
Akr1c13,-0.13,enough cells in well,200,177
Klf9,-0.34,enough cells in well,118,157
Nnt,0.65,enough cells in well,274,237
Eny2,,fewer than 50 cells per well; well left out of calls,184,90.6
Gdf1,-0.37,enough cells in well,171,150
5330439B14Rik,-0.4,enough cells in well,153,126
Abhd14a,3.15 (active),enough cells in well,319,281
